Legend:
Experiment in all cases: CellTiter-Glo luminescent cell viability assay
Assay type in all cases: cell-based, human
[1] = tested on: SW626 cells
Method: (§1) To evaluate the effects of one compound on 7 cell lines with a CellTiter-Glo Luminescent Cell Viability Assay. Cells were treated with compounds for 72 hours at 37° C./5% CO2 incubator. Compound stock concentration was 20 mM, concentrations to be assayed 100\50\15\10.5\0.1\0.05\0.01\0.005 pM. • i) Materials and Reagents
(§2) a) Cells in log-phase are collected and counted. Cell suspensions are added to each well of 384-w plate at a suitable density. The margin wells are filled with PBS.
(§3) b) Test compound at various concentrations are added in duplicates
(§4) c) The cells were incubated for 72 h in 370/5% CO 2 incubator.
(§5) d) After incubation, CellTiter-Glo® Reagent is added to each test well and shack for 2 minutes on an orbital shaker.
(§6) e) The plates are shortly centrifuged at 90×g for 30 s and incubated at room temperature for additional 10 minutes to stabilize the luminescent signal.
(§7) f) Luminescence signals are detected on PHERAstar Plus.
(§8) g) Data is collected in Microsoft excel forms and analyzed with GraphPad Prism v.6 software. • iii) Data analysis
(§9) The potential effect of the testing compounds an cell proliferation was calculated by the formula below: Inhibition %=[…]
(§10) Since hsMTHFD2 is expressed in human mitochondria and overexpressed in many tumor cells we next aimed to evaluate its potential as an anticancer compound. To this end IC50 values for carolacton were determined for six different cancer cell lines as well as HUVEC cells as primary non-tumor cells. The CellTiter-Glo luminescent cell viability assay (Promega) was used on triplicate cultures grown for three days. Each cell line was tested in three independent experiments (performed at different times and by different experimentators): First, using natural carolacton purified from culture supernatants of Sorangium cellulosum and solved in methanol; second, using carolacton synthesized de novo according to Schmidt et al. 2012 and solved in DMSO; and third, using synthetic carolacton synthesized de novo according to Schmidt et al. 2012 and solved in methanol.

[2] = tested on: HCT 116 cells
Method: as §1, §2, §3, §4, §5, §6, §7, §8, §9, §10

[3] = tested on: NK-92 cells
Method: as §1, §2, §3, §4, §5, §6, §7, §8, §9, §10

[4] = tested on: HUVEC cells; details: HUVEC (primary)
Method: as §1, §2, §3, §4, §5, §6, §7, §8, §9, §10

[5] = tested on: NCI-N87 cells; details: methanol
Method: as §1, §2, §3, §4, §5, §6, §7, §8, §9, §10

[6] = tested on: THP-1 cells
Method: as §1, §2, §3, §4, §5, §6, §7, §8, §9, §10

**Q.** With CO[C@H](CC(=O)O)[C@@H](C)C(=O)[C@H](C)/C=C(\C)[C@H]1OC(=O)[C@H](O)[C@H](O)/C=C/[C@H](C)CCC[C@@H]1C [Carolacton, carolacton] as the compound, how does the Hillslope ([1]; natural C, methanol) read?
**A.** =3.500

**Q.** And the Hillslope ([1]; synthetic C, DMSO)?
**A.** =3.500

**Q.** And the Hillslope ([1]; synthetic C, methanol)?
**A.** =3.500

**Q.** What about the Hillslope ([2]; natural C, methanol) of the same compound?
**A.** =3.500

**Q.** And the Hillslope ([2]; synthetic C, DMSO)?
**A.** =3.500

**Q.** And the Hillslope ([2]; synthetic C, methanol)?
**A.** =3.500

**Q.** What about the Hillslope ([3]; natural C, methanol) of the same compound?
**A.** 1.97

**Q.** And the Hillslope ([3]; synthetic C, methanal)?
**A.** 2.261

**Q.** And the Hillslope ([4]; natural C, methanol)?
**A.** 0.45

**Q.** What about the Hillslope ([4]; synthetic C, DMSO) of the same compound?
**A.** 0.3523

**Q.** And the Hillslope ([4]; synthetic C, methanol)?
**A.** 0.2985

**Q.** What about the Hillslope ([5]; natural C) of the same compound?
**A.** 2.62

**Q.** What about the Hillslope ([5]; synthetic C) of the same compound?
**A.** =3.500

**Q.** What about the Hillslope ([6]; THP 1, synthetic C, methanol) of the same compound?
**A.** =3.500

**Q.** What about the Hillslope ([6]; THP-1, natural C, methanol) of the same compound?
**A.** 6.64

**Q.** And the Hillslope ([6]; THP-1, synthetic C, DMSO)?
**A.** 9.48E−05
